PubChem BioAssay AID1259308, NCATS | 2017
This is one part, drawn at random, of about 59,000 deposited reagents. About 1,510 of all reagents (2.6%) count as active. 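Calls use total luciferase alone and ignore viability, so some active siRNAs may act by altering cell number.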 The numbers tell different reagents against one gene apart.

Assay: 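Genes whose loss raises luciferase production in HEK293 cells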 (primary screen)
Cell system: human HEK293 embryonic kidney cells stably expressing firefly luciferase (HEK-CMV-Luc2-Hygro)
Reagent: single siRNA against human genes, 0.8 pmol siRNA per well
Timing: 72 h
Read-out: 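Reporter luminescence and viable-cell signal on separate replicate plates, given as percent of non-targeting control and median/MAD z-scores, plus per-cell luciferase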
Direction: total luciferase, z-score and total luciferase, % of control: higher = more reporter protein produced; luciferase per cell, z-score: higher = more reporter output per viable cell; viable cells, % of control: higher = more viable cells
Call rule: 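An siRNA counts as active if its total luciferase robust z-score exceeds 3; genes with two or more such siRNAs out of three were retested with fresh siRNAs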
Calls: active = raised luciferase; inactive = no rise

target gene | reagent | total luciferase, z-score | total luciferase, % of control | luciferase per cell, z-score | viable cells, % of control | activity call
LINGO2 (leucine rich repeat and Ig domain containing 2) | 1 | -1.64 | 49.3 | -1.85 | 89.7 | inactive
LINGO2 (leucine rich repeat and Ig domain containing 2) | 2 | -0.323 | 75.5 | -0.215 | 89.2 | inactive
LINGO2 (leucine rich repeat and Ig domain containing 2) | 3 | 0.813 | 98.1 | 1.82 | 67.9 | inactive
FSCN3 (fascin actin-bundling protein 3) | 1 | -0.927 | 63.5 | -1.25 | 98.6 | inactive
FSCN3 (fascin actin-bundling protein 3) | 2 | -2.14 | 39.4 | -2.72 | 90.1 | inactive
FSCN3 (fascin actin-bundling protein 3) | 3 | 0.506 | 92 | -0.209 | 109 | inactive
STT3B (STT3 oligosaccharyltransferase complex catalytic subunit B) | 1 | 1.42 | 110 | 0.79 | 100 | inactive
STT3B (STT3 oligosaccharyltransferase complex catalytic subunit B) | 2 | -1.46 | 52.9 | -1.15 | 80.1 | inactive
STT3B (STT3 oligosaccharyltransferase complex catalytic subunit B) | 3 | -0.0764 | 80.4 | 0.111 | 87.2 | inactive
PAGE4 (PAGE family member 4) | 1 | 1.93 | 120 | 1.78 | 84.1 | inactive
PAGE4 (PAGE family member 4) | 2 | 1.13 | 104 | 1.43 | 80.1 | inactive
PAGE4 (PAGE family member 4) | 3 | -0.72 | 67.6 | -0.832 | 94 | inactive
WDR6 (WD repeat domain 6) | 1 | -0.423 | 73.5 | 0.103 | 79.9 | inactive
WDR6 (WD repeat domain 6) | 2 | 1.24 | 106 | 0.595 | 102 | inactive
WDR6 (WD repeat domain 6) | 3 | 2.59 | 133 | 1.57 | 98.6 | inactive
KCTD13 (potassium channel tetramerization domain containing 13) | 1 | 0.505 | 91.9 | 0.423 | 91.9 | inactive
KCTD13 (potassium channel tetramerization domain containing 13) | 2 | -0.789 | 66.2 | 0.119 | 71.7 | inactive
KCTD13 (potassium channel tetramerization domain containing 13) | 3 | 0.722 | 96.2 | 1.82 | 66.5 | inactive
NAGA (alpha-N-acetylgalactosaminidase) | 1 | -2.53 | 31.6 | -3.28 | 83.8 | inactive
NAGA (alpha-N-acetylgalactosaminidase) | 2 | -2.03 | 41.5 | -2.5 | 89.6 | inactive
NAGA (alpha-N-acetylgalactosaminidase) | 3 | -0.445 | 73 | -0.503 | 93.2 | inactive
SHLD1 (shieldin complex subunit 1) | 1 | -1.35 | 55.1 | 0.512 | 53.8 | inactive
SHLD1 (shieldin complex subunit 1) | 2 | -0.943 | 63.1 | -0.575 | 82.1 | inactive
SHLD1 (shieldin complex subunit 1) | 3 | 0.931 | 100 | 2.57 | 57.1 | inactive
ATXN1L (ataxin 1 like) | 1 | 0.0357 | 82.6 | -0.293 | 99.7 | inactive
ATXN1L (ataxin 1 like) | 2 | 2.25 | 127 | 0.567 | 122 | inactive
ATXN1L (ataxin 1 like) | 3 | 0.0802 | 83.5 | 0.649 | 78.6 | inactive
TOMM70 (translocase of outer mitochondrial membrane 70) | 1 | 0.455 | 90.9 | -0.011 | 102 | inactive
TOMM70 (translocase of outer mitochondrial membrane 70) | 2 | 1.02 | 102 | 1.01 | 87.5 | inactive
TOMM70 (translocase of outer mitochondrial membrane 70) | 3 | -0.123 | 79.4 | -0.923 | 113 | inactive
FGFR3 (fibroblast growth factor receptor 3) | 1 | 0.867 | 99.1 | 1.45 | 75.6 | inactive
FGFR3 (fibroblast growth factor receptor 3) | 2 | 0.878 | 99.3 | 0.182 | 106 | inactive
FGFR3 (fibroblast growth factor receptor 3) | 3 | 0.635 | 94.5 | -0.0912 | 108 | inactive
TPTE2P1 (TPTE2 pseudogene 1) | 1 | 2.21 | 126 | 1.79 | 87.7 | inactive
TPTE2P1 (TPTE2 pseudogene 1) | 2 | -0.192 | 78.1 | -0.687 | 105 | inactive
TPTE2P1 (TPTE2 pseudogene 1) | 3 | 1.21 | 106 | 1.25 | 85.3 | inactive

Entries above whose gene name begins with K or k (3):
target gene | reagent | total luciferase, z-score | total luciferase, % of control | luciferase per cell, z-score | viable cells, % of control | activity call
KCTD13 (potassium channel tetramerization domain containing 13) | 1 | 0.505 | 91.9 | 0.423 | 91.9 | inactive
KCTD13 (potassium channel tetramerization domain containing 13) | 2 | -0.789 | 66.2 | 0.119 | 71.7 | inactive
KCTD13 (potassium channel tetramerization domain containing 13) | 3 | 0.722 | 96.2 | 1.82 | 66.5 | inactive

Additional entries follow:
target gene | reagent | total luciferase, z-score | total luciferase, % of control | luciferase per cell, z-score | viable cells, % of control | activity call
NPLOC4 (NPL4 homolog, ubiquitin recognition factor) | 1 | 0.716 | 96.1 | 0.691 | 89.6 | inactive
NPLOC4 (NPL4 homolog, ubiquitin recognition factor) | 2 | 2.99 | 141 | 2.3 | 86.2 | inactive
NPLOC4 (NPL4 homolog, ubiquitin recognition factor) | 3 | 1.35 | 109 | 1.18 | 89 | inactive
SCRIB (scribble planar cell polarity protein) | 1 | -1.12 | 59.6 | -0.94 | 85.3 | inactive
SCRIB (scribble planar cell polarity protein) | 2 | -0.699 | 68 | -0.959 | 97.8 | inactive
SCRIB (scribble planar cell polarity protein) | 3 | -0.376 | 74.4 | -0.905 | 106 | inactive
FBXL15 (F-box and leucine rich repeat protein 15) | 1 | -0.756 | 66.8 | -0.599 | 87.5 | inactive
FBXL15 (F-box and leucine rich repeat protein 15) | 2 | 0.00752 | 82 | 0.323 | 84.2 | inactive
FBXL15 (F-box and leucine rich repeat protein 15) | 3 | 1.48 | 111 | 1.97 | 74.1 | inactive
CFAP119 (cilia and flagella associated protein 119) | 1 | -1.98 | 42.4 | 1.39 | 32.9 | inactive
CFAP119 (cilia and flagella associated protein 119) | 2 | -0.202 | 77.9 | 0.537 | 75.5 | inactive
CFAP119 (cilia and flagella associated protein 119) | 3 | -0.672 | 68.5 | -1.03 | 100 | inactive
NUDT15 (nudix hydrolase 15) | 1 | -1.81 | 45.8 | -1.02 | 67 | inactive
NUDT15 (nudix hydrolase 15) | 2 | 0.488 | 91.6 | 0.0477 | 101 | inactive
NUDT15 (nudix hydrolase 15) | 3 | -1.44 | 53.2 | -1.44 | 86.7 | inactive
PTPRU (protein tyrosine phosphatase receptor type U) | 1 | -0.986 | 62.3 | -0.538 | 80.2 | inactive
PTPRU (protein tyrosine phosphatase receptor type U) | 2 | -0.868 | 64.6 | -1.28 | 101 | inactive
PTPRU (protein tyrosine phosphatase receptor type U) | 3 | -0.00814 | 81.7 | -0.742 | 111 | inactive
GPR137B (G protein-coupled receptor 137B) | 1 | 0.127 | 84.4 | -0.44 | 106 | inactive
GPR137B (G protein-coupled receptor 137B) | 2 | 2.04 | 122 | 1.21 | 99.5 | inactive
GPR137B (G protein-coupled receptor 137B) | 3 | -0.295 | 76 | -0.758 | 104 | inactive
